These are yes or no findings as the source states them, for the method shown. Some binding calls cover weakened binding; strength is not graded here. Sequences can lack the tags named with a protein.
T1: mouse TR2 orphan nuclear receptor, Flag-tagged at the amino terminus, wild type (mouse), Q505F1
T1 chain: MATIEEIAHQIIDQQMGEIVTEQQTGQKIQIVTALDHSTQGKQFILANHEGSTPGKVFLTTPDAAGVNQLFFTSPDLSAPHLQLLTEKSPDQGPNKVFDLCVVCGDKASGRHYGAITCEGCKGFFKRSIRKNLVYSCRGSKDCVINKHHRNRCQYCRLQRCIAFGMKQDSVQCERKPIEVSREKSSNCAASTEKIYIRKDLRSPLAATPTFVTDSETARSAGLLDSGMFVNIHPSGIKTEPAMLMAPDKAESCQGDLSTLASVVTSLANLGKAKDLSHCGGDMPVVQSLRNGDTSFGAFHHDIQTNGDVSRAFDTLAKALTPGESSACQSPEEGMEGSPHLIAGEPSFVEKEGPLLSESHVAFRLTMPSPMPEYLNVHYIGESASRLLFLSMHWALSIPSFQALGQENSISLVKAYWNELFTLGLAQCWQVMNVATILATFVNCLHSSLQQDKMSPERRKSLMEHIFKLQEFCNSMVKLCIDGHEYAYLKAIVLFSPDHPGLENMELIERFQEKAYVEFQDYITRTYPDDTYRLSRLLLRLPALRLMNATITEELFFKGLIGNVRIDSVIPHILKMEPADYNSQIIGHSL

T2: mouse TR4 orphan nuclear receptor, Flag-tagged at the amino terminus, wild type (mouse), P49117
T2 chain: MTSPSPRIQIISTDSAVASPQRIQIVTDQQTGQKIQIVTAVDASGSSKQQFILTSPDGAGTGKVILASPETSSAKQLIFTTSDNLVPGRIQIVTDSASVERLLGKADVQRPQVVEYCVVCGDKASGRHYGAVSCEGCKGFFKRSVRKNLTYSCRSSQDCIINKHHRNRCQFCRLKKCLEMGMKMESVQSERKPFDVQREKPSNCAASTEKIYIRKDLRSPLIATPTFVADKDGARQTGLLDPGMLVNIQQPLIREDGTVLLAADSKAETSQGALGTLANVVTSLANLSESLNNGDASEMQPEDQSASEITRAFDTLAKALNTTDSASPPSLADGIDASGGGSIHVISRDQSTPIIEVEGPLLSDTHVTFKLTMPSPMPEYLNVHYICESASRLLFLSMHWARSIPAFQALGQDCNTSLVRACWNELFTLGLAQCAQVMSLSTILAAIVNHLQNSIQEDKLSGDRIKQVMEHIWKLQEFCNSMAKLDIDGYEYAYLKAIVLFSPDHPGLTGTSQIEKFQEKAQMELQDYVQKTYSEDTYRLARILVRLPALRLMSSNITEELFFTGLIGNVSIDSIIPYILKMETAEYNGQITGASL


Experiments:
[1] = target: T1, mouse TR2 orphan nuclear receptor, …; experiment: EMSA of 293T nuclear extracts on the ε distal DR probe; homodimer inferred; conditions: remark: other sources report otherwise
[2] = target: T2, mouse TR4 orphan nuclear receptor, …; experiment: as above; conditions: remark: other sources report otherwise

| Binder | binding [1] | binding [2] |
| --- | --- | --- |
| mouse TR2 orphan nuclear receptor, Flag-tagged at the amino terminus, wild type (receptor, UniProt Q505F1 1-590, looked up, also called wild type TR2; not shown: Flag tag at the amino terminus) MATIEEIAHQIIDQQMGEIVTEQQTGQKIQIVTALDHSTQGKQFILANHEGSTPGKVFLTTPDAAGVNQLFFTSPDLSAPHLQLLTEKSPDQGPNKVFDLCVVCGDKASGRHYGAITCEGCKGFFKRSIRKNLVYSCRGSKDCVINKHHRNRCQYCRLQRCIAFGMKQDSVQCERKPIEVSREKSSNCAASTEKIYIRKDLRSPLAATPTFVTDSETARSAGLLDSGMFVNIHPSGIKTEPAMLMAPDKAESCQGDLSTLASVVTSLANLGKAKDLSHCGGDMPVVQSLRNGDTSFGAFHHDIQTNGDVSRAFDTLAKALTPGESSACQSPEEGMEGSPHLIAGEPSFVEKEGPLLSESHVAFRLTMPSPMPEYLNVHYIGESASRLLFLSMHWALSIPSFQALGQENSISLVKAYWNELFTLGLAQCWQVMNVATILATFVNCLHSSLQQDKMSPERRKSLMEHIFKLQEFCNSMVKLCIDGHEYAYLKAIVLFSPDHPGLENMELIERFQEKAYVEFQDYITRTYPDDTYRLSRLLLRLPALRLMNATITEELFFKGLIGNVRIDSVIPHILKMEPADYNSQIIGHSL | binds | – |
| mouse TR4 orphan nuclear receptor, Flag-tagged at the amino terminus, wild type, P49117 1-596 (receptor, UniProt P49117 1-596, looked up, not shown: small tags and cut ends) MTSPSPRIQIISTDSAVASPQRIQIVTDQQTGQKIQIVTAVDASGSSKQQFILTSPDGAGTGKVILASPETSSAKQLIFTTSDNLVPGRIQIVTDSASVERLLGKADVQRPQVVEYCVVCGDKASGRHYGAVSCEGCKGFFKRSVRKNLTYSCRSSQDCIINKHHRNRCQFCRLKKCLEMGMKMESVQSERKPFDVQREKPSNCAASTEKIYIRKDLRSPLIATPTFVADKDGARQTGLLDPGMLVNIQQPLIREDGTVLLAADSKAETSQGALGTLANVVTSLANLSESLNNGDASEMQPEDQSASEITRAFDTLAKALNTTDSASPPSLADGIDASGGGSIHVISRDQSTPIIEVEGPLLSDTHVTFKLTMPSPMPEYLNVHYICESASRLLFLSMHWARSIPAFQALGQDCNTSLVRACWNELFTLGLAQCAQVMSLSTILAAIVNHLQNSIQEDKLSGDRIKQVMEHIWKLQEFCNSMAKLDIDGYEYAYLKAIVLFSPDHPGLTGTSQIEKFQEKAQMELQDYVQKTYSEDTYRLARILVRLPALRLMSSNITEELFFTGLIGNVSIDSIIPYILKMETAEYNGQITGASL | – | binds |

From US20080008651A1, “Screening Methods and Transgenic Animals for the Treatment of Beta-Globin Related Disease and Conditions” (THE REGENTS OF THE UNIVERSITY OF MICHIGAN, published 2008)
